Measurements taken from PubChem BioAssay AID2685 (National Center for Advancing Translational Sciences (NCATS), 2010).
The list shows a part of the results. Further columns of the screen follow, without active or inactive calls. Most of these compounds were active or inconclusive in the main read-out, so they are no random draw. Words in brackets tell the shape of the fitted curve; partial curves, single points and poor fits give uncertain potencies.

Test: qHTS Assay for Lipid Storage Modulators in Drosophila S3 Cells;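 as to cell number change: cells counted by Cell Tracker Red CMTPX staining in the red channel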
Details: BODIPY lipid droplet fluorescence, 18-24 h; for cell number change: measured here: cell count max response, cells fed with added oleic acid
In short: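 Drosophila S3 cells loaded with oleic acid (400 uM, as added) and compounds at several concentrations; lipid droplets imaged by 488-nm laser-scanning cytometry, 500–530 nm intensity and object ratio to cell channel. Percent activity normalized to 20 uM Triacsin C.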

[1] = measured here: cell number channel AC50, cells fed with added oleic acid
[2] = measured here: lipid fluorescence (Fed channel) AC50, cells fed with added oleic acid

Row | Structure (SMILES) | cell number change | AC50 [1] | AC50 [2]
1 | CCOc1ncccc1C(=O)OCC(=O)Nc1ccc(S(=O)(=O)N2CCCC2)cc1 | -4.48% |  | 
2 | CC(C)(C)c1ccc(C(=O)N2CCN(CCNC(=O)C(=O)NCc3ccccc3)CC2)cc1 | 31.6% | 8.2 µM [rising, partial curve, poor fit] | 
3 | COC(=O)c1ccccc1NC(=S)NC(=O)COc1ccc(C(C)C)cc1 | -24.2% | 4.11 µM [rising, single point] | 3.26 µM [rising, single point]
4 | O=C1C=C(c2ccc(Oc3ccccc3)cc2)C[C@@H](c2ccc(F)cc2)C1 | 11.1% |  | 
5 | Cn1cc(C(=O)N/N=C/C2=C(N3CCOCC3)C(=C\c3ccccc3)/CC2)ccc1=O | -2.66% |  | 14.6 µM [rising, partial curve]
6 | O=C(COC(=O)[C@H](Cc1c[nH]c2ccccc12)NC(=O)c1ccc(Cl)cc1)Nc1ccc2c(c1)OCO2 | 1.3% |  | 23.1 µM [rising, partial curve]
7 | CC(C)(C)Cc1nc(-c2ccc(Cl)cc2)no1 | -82.2% | 9.2 µM [falling, partial curve] | 
8 | COc1ccc(-c2cccc(C3CC=CC4C3C(=O)N(Cc3ccccc3)C4c3ccc(OC)c(Cl)c3)c2)cc1 (stereo unspecified) | -31.6% | 7.31 µM [falling, partial curve, poor fit] | 13 µM [falling, partial curve]
9 | COc1ccc(OC)c(/C=C/C(=O)N2C(=O)c3cccc(N)c3C2=O)c1 |  |  | 29.1 µM [falling, single point]
10 | CC(=O)c1ccc(S(=O)(=O)N(C)CC(=O)Nc2ccc(C)cc2)cc1 | 9.91% |  | 1.84 µM [rising, full curve, poor fit]
11 | Cc1cc2nc(N3CCN(C(=O)c4ccco4)CC3)sc2cc1C | 51% | 2.06 µM [rising, full curve] | 
12 | O=c1[nH]cc(S(=O)(=O)c2ccccc2)[nH]1 |  | 0.731 µM [rising, single point] | 
13 | Cc1sc(NC(=O)CSc2nnc(C)c(=O)[nH]2)c(C#N)c1C | 15.6% | 1.64 µM [rising, single point] | 
14 | CCS(=O)(=O)c1nc(S(=O)(=O)c2ccc(C)cc2)c(N2CCC(O)CC2)s1 | -32.9% | 32.6 µM [falling, single point] | 
15 | Cc1cc(OCCOCCNC(C)C)cc(C)c1Cl | 15.2% | 4.11 µM [falling, single point] | 6.51 µM [falling, single point]
16 | CCn1c(=O)n(CC)c2cc(NS(=O)(=O)c3ccccc3)ccc21 | 19.4% | 0.092 µM [rising, full curve, poor fit] | 3.66 µM [rising, single point]
17 | CN(C)S(=O)(=O)Oc1cccc(C(=O)Nc2ccc(Cl)c(Cl)c2)c1 | -13.6% |  | 29.1 µM [falling, single point]
18 | O=C(c1cnn2c1NC(c1ccco1)CC2C(F)(F)F)N1CCN(c2cccc(Cl)c2)CC1 (stereo unspecified) | 74.8% | 1.84 µM [rising, full curve] | 1.64 µM [rising, full curve]
19 | O=C(c1cc2cc(Cl)ccc2o1)N1CCCCCC1 | 150% | 11.6 µM [rising, partial curve] | 0.103 µM [falling, full curve, poor fit]

Row | Structure (SMILES) | cell number change | AC50 [1] | AC50 [2]
20 | O=C1C(=Cc2cccs2)C(=O)c2ccccc21 |  |  | 8.2 µM [falling, partial curve]
21 | Cc1cc(C)c(O)c(-c2cc(C(=O)NCc3ccccc3)[nH]n2)c1 | -29% |  | 29.1 µM [falling, single point]
22 | CCOc1ccc(N2CC(C(=O)NNC(=O)c3ccc(Br)cc3)CC2=O)cc1 (stereo unspecified) |  |  | 4.61 µM [falling, partial curve, poor fit]
23 | Cc1cc(Cl)ccc1NC(=S)N1CCOCC1 | 8.14% |  | 14.6 µM [rising, partial curve]
24 | CC(=O)NC(CC(=O)Nc1ccc(S(=O)(=O)NC2=NCCCCC2)cc1)c1ccccc1 (stereo unspecified) | 23.1% |  | 0.146 µM [rising, full curve, poor fit]
25 | CCOc1ccc(N(CC(=O)Nc2ccc3c(c2)OCCO3)S(=O)(=O)c2c(C)noc2C)cc1 |  | 0.231 µM [rising, full curve, poor fit] | 0.206 µM [rising, full curve]
26 | Cc1cccc(Nc2nc(NCC3CCCO3)nc(N)c2[N+](=O)[O-])c1 (stereo unspecified) | -12.3% |  | 0.231 µM [rising, full curve, poor fit]
27 | Cn1c(CN2CCCC2)nc2cc(NS(=O)(=O)c3ccc(Cl)cc3)ccc21 |  | 0.517 µM [rising, full curve] | 1.03 µM [rising, partial curve]
28 | Cc1cc(OCc2cc(C(=O)N(C)CC3CCOCC3)no2)cc(C)c1Cl | -57.4% | 29.1 µM [falling, single point] | 29.1 µM [falling, single point]
29 | CCOC(=O)c1nnn(CC(=O)NC(=O)Nc2ccccc2)c1C(=O)OCC | 20.4% | 0.259 µM [falling, partial curve, poor fit] | 
30 | Cc1ccc(C(=O)N2CCN(CCNC(=O)C(=O)NCc3ccc(Cl)cc3)CC2)cc1 |  |  | 29.1 µM [rising, single point]
31 | CCCNC(=O)C(Cc1ccc(C(F)(F)F)cc1)NC(=O)c1ccc2ccccc2n1 (stereo unspecified) | -24.7% |  | 18.4 µM [falling, single point]
32 | CCOC(=O)N/N=C\c1ccccc1OC/C=C/c1ccccc1 | 37.3% | 20.6 µM [rising, partial curve, poor fit] | 0.184 µM [rising, full curve, poor fit]
33 | CN(C)c1ccc(NC(=O)Nc2cccc(Cl)c2)cc1 |  | 1.64 µM [rising, partial curve, poor fit] | 
34 | C=C(C)C1CC=C(C)/C(=N\NC(=S)Nc2ccc(C)cc2)C1 (stereo unspecified) | 45.5% | 6.51 µM [falling, single point] | 
35 | CN(Cc1ccccc1N1CCCC1)C(=O)c1cc2cc(Cl)ccc2o1 | 37.4% | 16.4 µM [rising, partial curve, poor fit] | 
36 | CC(O/N=C\c1ccccc1O)C(=O)Nc1ccccc1C(=O)N1CCOCC1 (stereo unspecified) | 41.4% | 0.206 µM [falling, full curve, poor fit] | 29.1 µM [rising, single point]
37 | C=CCn1cc(-c2ccccc2)cc(C#N)c1=O | -14.6% |  | 6.51 µM [rising, single point]
38 | CSc1nc2ccccc2c(=O)n1N | 30.4% | 13 µM [rising, single point] | 0.116 µM [rising, single point]

Row | Structure (SMILES) | cell number change | AC50 [1] | AC50 [2]
39 | COc1ccc(-n2c(=O)[nH]c3c(C(N)=O)nc(C4CCCCC4)nc32)cc1 | 11.4% |  | 
40 | CCN(C(=O)CSc1nnc(C)n1Cc1ccccc1)C1CCS(=O)(=O)C1 (stereo unspecified) | 7.29% |  | 29.1 µM [falling, single point]
41 | Cc1cccc(N2C(=O)N3[C@H](c4ccc(Br)cc4)[C@@H]4C(=O)N(C(C)(C)C)C(=O)[C@@H]4[C@]3(C)C2=O)c1 | -8.41% |  | 
42 | c1ccc(-c2nc(-c3cccnc3)cs2)cc1 | -32.2% | 29.1 µM [falling, single point] | 
43 | CC1Cc2ccccc2N1C(=O)C1CCCN1S(=O)(=O)c1ccc(Cl)cc1 (stereo unspecified) | 26.7% |  | 7.31 µM [falling, single point]
44 | COC(=O)c1ccc(COc2ccccc2/C=C(\C#N)C(=O)Nc2c(C)cccc2C)cc1 | 1.35% |  | 6.51 µM [falling, partial curve]
45 | CCOC(=O)c1ccccc1NC(=O)CSc1nc2ccccc2n1CC(=O)N1CCCC1 | 45.2% | 0.231 µM [rising, full curve, poor fit] | 0.461 µM [rising, full curve]
46 | CCOC(=O)C1=C(COC(=O)C2(C)CC2(Cl)Cl)NC(=O)NC1c1ccc(OC)cc1 (stereo unspecified) | 9.02% |  | 14.6 µM [rising, single point]
47 | Cc1c(CCOC(=O)CC23CC4CC(CC(C4)C2)C3)sc[n+]1CC(=O)c1ccc(Br)cc1 | -92.3% | 29.1 µM [falling, single point] | 29.1 µM [falling, single point]
48 | COc1ccc(CCNC(=O)Cn2nc([N+](=O)[O-])c(Br)c2C)cc1OC | -28.7% | 0.0058 µM [falling, full curve] | 
49 | CC(C)(C)c1cc(C(=O)N/N=C/c2ccc([N+](=O)[O-])s2)n[nH]1 | -23.6% |  | 11.6 µM [falling, partial curve]
50 | COCCCN1C(=O)c2ccc(C(=O)Nc3ccccc3Cl)cc2C1=O | -0.202% |  | 0.82 µM [falling, full curve, poor fit]
51 | COc1ccccc1NC(=O)c1cc2c(CO)cnc(C)c2oc1=Nc1cccc(C(N)=O)c1 | 1.8% |  | 
52 | Cc1ccc(NC(=O)CSc2nnc(Cc3ccccc3)c(=O)[nH]2)c(C)c1 | 15.1% |  | 29.1 µM [rising, single point]
53 | CCCC(=O)Nc1ccc(NC(=O)c2cc3ccccc3o2)c(OC)c1 | -24.1% |  | 
54 | COc1cccc(N2CC(C(=O)Nc3c(C(N)=O)oc4ccccc34)CC2=O)c1 (stereo unspecified) | 25% | 6.51 µM [falling, single point] | 
55 | CC(=O)c1cc(OC(=O)N2CCOCC2)ccc1OC(=O)N1CCOCC1 | 13.5% |  | 0.146 µM [falling, full curve, poor fit]
56 | CCOC(=O)N1CCN(S(=O)(=O)c2cc([N+](=O)[O-])ccc2C)CC1 | 142% |  | 

Only AC50 [2], for some of the entries so far:
Row	Structure (SMILES)	AC50 [2]
44	COC(=O)c1ccc(COc2ccccc2/C=C(\C#N)C(=O)Nc2c(C)cccc2C)cc1	6.51 µM [falling, partial curve]
45	CCOC(=O)c1ccccc1NC(=O)CSc1nc2ccccc2n1CC(=O)N1CCCC1	0.461 µM [rising, full curve]

An excerpt taken from the entries so far:
Row | Structure (SMILES) | cell number change | AC50 [1] | AC50 [2]
43 | CC1Cc2ccccc2N1C(=O)C1CCCN1S(=O)(=O)c1ccc(Cl)cc1 (stereo unspecified) | 26.7% |  | 7.31 µM [falling, single point]
44 | COC(=O)c1ccc(COc2ccccc2/C=C(\C#N)C(=O)Nc2c(C)cccc2C)cc1 | 1.35% |  | 6.51 µM [falling, partial curve]
